Chains of the proteins cited; added tags and fusions are not shown.
UniProt Q96DT5: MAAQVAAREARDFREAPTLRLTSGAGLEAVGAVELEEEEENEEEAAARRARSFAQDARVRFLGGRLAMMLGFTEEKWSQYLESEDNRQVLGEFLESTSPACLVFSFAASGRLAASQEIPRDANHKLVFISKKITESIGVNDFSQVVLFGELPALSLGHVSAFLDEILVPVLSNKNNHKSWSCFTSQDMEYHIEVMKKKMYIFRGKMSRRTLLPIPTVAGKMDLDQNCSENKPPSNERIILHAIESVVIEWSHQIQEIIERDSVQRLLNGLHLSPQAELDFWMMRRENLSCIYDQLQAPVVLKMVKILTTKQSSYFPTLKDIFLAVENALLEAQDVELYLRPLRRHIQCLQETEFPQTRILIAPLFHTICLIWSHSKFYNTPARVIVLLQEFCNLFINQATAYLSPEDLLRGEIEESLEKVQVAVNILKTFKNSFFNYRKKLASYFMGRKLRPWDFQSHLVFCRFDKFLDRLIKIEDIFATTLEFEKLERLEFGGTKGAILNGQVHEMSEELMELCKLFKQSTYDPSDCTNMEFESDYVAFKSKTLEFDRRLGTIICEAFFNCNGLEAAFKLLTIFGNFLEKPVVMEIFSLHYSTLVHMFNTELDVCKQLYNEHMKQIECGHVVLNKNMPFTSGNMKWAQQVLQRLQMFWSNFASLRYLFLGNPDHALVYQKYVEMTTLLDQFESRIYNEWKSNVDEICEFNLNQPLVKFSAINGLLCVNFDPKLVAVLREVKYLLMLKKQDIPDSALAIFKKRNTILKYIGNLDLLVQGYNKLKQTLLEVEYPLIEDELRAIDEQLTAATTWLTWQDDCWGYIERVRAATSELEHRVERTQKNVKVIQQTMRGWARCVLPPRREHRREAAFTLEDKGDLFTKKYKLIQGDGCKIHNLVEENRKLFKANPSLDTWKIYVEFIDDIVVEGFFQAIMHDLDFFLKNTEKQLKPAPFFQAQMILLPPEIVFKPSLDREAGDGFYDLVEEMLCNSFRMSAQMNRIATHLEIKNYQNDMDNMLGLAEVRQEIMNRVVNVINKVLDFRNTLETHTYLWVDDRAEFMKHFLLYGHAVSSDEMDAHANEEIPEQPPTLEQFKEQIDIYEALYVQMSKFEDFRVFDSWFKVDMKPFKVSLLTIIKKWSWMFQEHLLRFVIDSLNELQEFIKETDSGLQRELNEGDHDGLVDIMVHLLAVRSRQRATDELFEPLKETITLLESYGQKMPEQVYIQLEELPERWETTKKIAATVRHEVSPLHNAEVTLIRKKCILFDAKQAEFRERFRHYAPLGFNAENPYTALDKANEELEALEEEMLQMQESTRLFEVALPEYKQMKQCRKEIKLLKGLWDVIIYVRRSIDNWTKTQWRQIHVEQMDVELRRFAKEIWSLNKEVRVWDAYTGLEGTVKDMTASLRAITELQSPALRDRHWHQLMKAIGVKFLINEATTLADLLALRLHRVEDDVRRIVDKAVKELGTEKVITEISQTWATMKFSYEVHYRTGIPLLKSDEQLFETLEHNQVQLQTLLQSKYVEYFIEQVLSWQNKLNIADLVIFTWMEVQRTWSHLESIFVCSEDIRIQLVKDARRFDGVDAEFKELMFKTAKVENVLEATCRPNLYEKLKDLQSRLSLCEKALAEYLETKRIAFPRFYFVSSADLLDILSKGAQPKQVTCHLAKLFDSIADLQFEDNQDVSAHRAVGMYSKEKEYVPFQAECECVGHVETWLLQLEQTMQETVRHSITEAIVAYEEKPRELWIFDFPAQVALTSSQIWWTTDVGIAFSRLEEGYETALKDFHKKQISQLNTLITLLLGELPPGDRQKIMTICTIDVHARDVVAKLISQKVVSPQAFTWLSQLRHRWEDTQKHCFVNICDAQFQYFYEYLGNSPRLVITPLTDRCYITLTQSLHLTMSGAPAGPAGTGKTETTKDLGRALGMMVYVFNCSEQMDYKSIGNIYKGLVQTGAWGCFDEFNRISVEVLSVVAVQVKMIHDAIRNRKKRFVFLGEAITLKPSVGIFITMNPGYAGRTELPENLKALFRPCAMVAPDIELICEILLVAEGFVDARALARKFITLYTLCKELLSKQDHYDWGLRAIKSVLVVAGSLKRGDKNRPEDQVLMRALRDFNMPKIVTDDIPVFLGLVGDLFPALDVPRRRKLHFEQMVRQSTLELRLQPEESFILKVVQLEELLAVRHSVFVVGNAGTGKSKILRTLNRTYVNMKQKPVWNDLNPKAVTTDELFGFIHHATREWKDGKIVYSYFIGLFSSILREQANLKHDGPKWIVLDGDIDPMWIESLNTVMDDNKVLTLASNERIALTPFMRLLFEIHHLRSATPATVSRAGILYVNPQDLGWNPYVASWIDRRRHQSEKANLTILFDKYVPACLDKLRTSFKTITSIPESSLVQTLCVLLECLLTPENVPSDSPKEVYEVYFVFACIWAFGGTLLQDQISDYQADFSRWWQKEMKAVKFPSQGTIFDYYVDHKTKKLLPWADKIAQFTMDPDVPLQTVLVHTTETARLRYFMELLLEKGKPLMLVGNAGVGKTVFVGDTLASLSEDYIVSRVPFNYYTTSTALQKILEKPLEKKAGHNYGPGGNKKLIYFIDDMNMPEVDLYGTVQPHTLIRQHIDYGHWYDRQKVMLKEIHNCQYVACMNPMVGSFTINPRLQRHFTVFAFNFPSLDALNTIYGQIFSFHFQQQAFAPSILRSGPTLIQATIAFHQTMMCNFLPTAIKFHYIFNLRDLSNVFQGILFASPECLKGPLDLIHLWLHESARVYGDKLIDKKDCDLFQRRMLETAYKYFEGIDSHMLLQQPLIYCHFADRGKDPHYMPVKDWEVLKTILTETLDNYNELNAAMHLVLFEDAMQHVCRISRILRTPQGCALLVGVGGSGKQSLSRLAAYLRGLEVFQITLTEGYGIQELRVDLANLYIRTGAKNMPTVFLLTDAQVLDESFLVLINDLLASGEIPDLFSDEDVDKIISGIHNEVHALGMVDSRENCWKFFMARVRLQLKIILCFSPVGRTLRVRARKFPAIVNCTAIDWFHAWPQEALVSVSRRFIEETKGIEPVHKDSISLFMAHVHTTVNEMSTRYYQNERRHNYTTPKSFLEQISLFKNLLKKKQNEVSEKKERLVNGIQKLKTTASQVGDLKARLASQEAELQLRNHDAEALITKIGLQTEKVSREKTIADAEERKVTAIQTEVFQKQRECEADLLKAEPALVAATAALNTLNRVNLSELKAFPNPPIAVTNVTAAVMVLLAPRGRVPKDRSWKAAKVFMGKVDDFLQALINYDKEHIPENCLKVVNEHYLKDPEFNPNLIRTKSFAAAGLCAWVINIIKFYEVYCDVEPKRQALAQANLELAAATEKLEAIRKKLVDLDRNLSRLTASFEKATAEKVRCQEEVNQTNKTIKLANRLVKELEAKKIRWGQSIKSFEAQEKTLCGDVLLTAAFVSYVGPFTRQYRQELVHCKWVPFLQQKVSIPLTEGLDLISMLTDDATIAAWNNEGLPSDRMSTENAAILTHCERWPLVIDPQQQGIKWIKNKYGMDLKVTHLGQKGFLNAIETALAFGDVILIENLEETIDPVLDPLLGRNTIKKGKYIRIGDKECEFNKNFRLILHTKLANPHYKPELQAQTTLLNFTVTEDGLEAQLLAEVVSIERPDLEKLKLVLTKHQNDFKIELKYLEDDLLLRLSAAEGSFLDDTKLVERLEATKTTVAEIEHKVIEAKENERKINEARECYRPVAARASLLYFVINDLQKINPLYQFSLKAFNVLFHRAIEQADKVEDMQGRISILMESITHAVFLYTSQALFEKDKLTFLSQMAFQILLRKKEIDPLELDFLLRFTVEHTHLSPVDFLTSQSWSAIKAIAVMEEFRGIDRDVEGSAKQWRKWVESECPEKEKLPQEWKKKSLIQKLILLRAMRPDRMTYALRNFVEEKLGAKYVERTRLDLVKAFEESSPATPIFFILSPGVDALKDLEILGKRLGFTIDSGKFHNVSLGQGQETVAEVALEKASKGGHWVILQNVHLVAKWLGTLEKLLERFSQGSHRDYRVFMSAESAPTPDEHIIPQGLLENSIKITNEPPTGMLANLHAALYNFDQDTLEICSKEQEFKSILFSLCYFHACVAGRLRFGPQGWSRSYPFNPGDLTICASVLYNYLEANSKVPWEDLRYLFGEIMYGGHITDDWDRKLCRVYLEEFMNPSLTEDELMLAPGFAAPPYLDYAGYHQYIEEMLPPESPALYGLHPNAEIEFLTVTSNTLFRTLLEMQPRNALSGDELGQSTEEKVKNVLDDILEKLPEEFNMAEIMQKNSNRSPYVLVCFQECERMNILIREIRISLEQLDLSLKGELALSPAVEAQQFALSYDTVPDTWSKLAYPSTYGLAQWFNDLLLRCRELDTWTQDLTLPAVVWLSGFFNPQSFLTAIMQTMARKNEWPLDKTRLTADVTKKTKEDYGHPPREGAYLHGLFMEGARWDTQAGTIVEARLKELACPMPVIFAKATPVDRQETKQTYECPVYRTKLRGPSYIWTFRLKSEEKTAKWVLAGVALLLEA
UniProt Q15811: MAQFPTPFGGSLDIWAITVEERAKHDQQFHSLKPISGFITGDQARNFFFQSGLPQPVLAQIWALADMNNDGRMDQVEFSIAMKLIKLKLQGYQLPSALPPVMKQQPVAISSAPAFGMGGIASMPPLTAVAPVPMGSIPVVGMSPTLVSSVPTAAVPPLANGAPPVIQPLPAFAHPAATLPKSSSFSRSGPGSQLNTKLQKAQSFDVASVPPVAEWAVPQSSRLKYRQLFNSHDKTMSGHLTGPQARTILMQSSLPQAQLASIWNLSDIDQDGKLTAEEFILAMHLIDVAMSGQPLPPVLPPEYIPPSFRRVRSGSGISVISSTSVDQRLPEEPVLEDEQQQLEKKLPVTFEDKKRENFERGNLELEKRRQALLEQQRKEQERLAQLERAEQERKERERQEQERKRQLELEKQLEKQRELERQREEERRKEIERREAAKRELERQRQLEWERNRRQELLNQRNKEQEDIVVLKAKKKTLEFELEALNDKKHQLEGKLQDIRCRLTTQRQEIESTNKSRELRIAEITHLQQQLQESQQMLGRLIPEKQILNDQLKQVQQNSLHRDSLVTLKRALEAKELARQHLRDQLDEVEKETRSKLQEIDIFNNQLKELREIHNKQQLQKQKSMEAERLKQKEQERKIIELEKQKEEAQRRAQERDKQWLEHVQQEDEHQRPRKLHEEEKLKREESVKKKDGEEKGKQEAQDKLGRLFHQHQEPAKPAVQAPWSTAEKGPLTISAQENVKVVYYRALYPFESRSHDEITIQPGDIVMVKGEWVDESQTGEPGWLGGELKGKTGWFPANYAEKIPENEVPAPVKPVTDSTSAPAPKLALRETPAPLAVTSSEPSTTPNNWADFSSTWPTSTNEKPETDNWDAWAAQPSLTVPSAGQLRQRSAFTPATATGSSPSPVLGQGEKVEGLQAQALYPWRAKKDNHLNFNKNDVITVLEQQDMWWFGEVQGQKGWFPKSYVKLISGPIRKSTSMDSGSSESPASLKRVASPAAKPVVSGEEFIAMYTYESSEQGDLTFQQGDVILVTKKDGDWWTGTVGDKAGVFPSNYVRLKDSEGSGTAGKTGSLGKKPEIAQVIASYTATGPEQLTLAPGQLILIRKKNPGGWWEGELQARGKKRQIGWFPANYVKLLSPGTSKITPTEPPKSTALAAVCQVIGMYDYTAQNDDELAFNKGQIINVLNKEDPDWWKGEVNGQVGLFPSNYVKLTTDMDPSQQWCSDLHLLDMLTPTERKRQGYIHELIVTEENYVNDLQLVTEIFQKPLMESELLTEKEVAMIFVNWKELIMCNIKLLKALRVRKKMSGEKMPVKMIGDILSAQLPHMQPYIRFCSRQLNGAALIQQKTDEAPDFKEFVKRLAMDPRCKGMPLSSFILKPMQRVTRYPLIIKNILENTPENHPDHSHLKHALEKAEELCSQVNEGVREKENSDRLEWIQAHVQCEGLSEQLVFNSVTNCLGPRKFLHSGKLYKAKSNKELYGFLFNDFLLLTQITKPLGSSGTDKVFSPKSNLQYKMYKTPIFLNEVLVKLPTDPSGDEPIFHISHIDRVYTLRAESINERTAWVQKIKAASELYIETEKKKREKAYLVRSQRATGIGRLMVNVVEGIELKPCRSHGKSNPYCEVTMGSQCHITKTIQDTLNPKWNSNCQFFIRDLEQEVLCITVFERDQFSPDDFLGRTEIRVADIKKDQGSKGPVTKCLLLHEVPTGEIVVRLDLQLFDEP

In paper PMC12651903:

T1: M2-flagged human RhoGDI2 (Rho GDP-dissociation inhibitor 2) (human) (UniProt P52566)
T1 sequence: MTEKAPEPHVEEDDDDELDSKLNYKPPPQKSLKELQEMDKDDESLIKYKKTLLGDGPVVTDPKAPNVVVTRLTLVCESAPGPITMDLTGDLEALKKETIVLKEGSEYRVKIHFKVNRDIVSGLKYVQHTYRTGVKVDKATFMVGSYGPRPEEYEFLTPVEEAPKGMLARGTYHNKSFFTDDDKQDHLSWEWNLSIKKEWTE

B1: Dynein intermediate chain 2; axonemal (protein, UniProt Q9GZS0 1-605)
chain: MEIVYVYVKKRSEFGKQCNFSDRQAELNIDIMPNPELAEQFVERNPVDTGIQCSISMSEHEANSERFEMETRGVNHVEGGWPKDVNPLELEQTIRFRKKVEKDENYVNAIMQLGSIMEHCIKQNNAIDIYEEYFNDEEAMEVMEEDPSAKTINVFRDPQEIKRAATHLSWHPDGNRKLAVAYSCLDFQRAPVGMSSDSYIWDLENPNKPELALKPSSPLVTLEFNPKDSHVLLGGCYNGQIACWDTRKGSLVAELSTIESSHRDPVYGTIWLQSKTGTECFSASTDGQVMWWDIRKMSEPTEVVILDITKKEQLENALGAISLEFESTLPTKFMVGTEQGIVISCNRKAKTSAEKIVCTFPGHHGPIYALQRNPFYPKNFLTVGDWTARIWSEDSRESSIMWTKYHMAYLTDAAWSPVRPTVFFTTRMDGTLDIWDFMFEQCDPTLSLKVCDEALFCLRVQDNGCLIACGSQLGTTTLLEVSPGLSTLQRNEKNVASSMFERETRREKILEARHREMRLKEKGKAEGRDEEQTDEELAVDLEALVSKAEEEFFDIIFAELKKKEADAIKLTPVPQQPSPEEDQVVEEGEEAAGEEGDEEVEEDLA
B2: Rho GTPase-activating protein 6 (protein, UniProt O43182 1-974)
chain: MSAQSLLHSVFSCSSPASSSAASAKGFSKRKLRQTRSLDPALIGGCGSDEAGAEGSARGATAGRLYSPSLPAESLGPRLASSSRGPPPRATRLPPPGPLCSSFSTPSTPQEKSPSGSFHFDYEVPLGRGGLKKSMAWDLPSVLAGPASSRSASSILCSSGGGPNGIFASPRRWLQQRKFQSPPDSRGHPYVVWKSEGDFTWNSMSGRSVRLRSVPIQSLSELERARLQEVAFYQLQQDCDLSCQITIPKDGQKRKKSLRKKLDSLGKEKNKDKEFIPQAFGMPLSQVIANDRAYKLKQDLQRDEQKDASDFVASLLPFGNKRQNKELSSSNSSLSSTSETPNESTSPNTPEPAPRARRRGAMSVDSITDLDDNQSRLLEALQLSLPAEAQSKKEKARDKKLSLNPIYRQVPRLVDSCCQHLEKHGLQTVGIFRVGSSKKRVRQLREEFDRGIDVSLEEEHSVHDVAALLKEFLRDMPDPLLTRELYTAFINTLLLEPEEQLGTLQLLIYLLPPCNCDTLHRLLQFLSIVARHADDNISKDGQEVTGNKMTSLNLATIFGPNLLHKQKSSDKEFSVQSSARAEESTAIIAVVQKMIENYEALFMVPPDLQNEVLISLLETDPDVVDYLLRRKASQSSSPDMLQSEVSFSVGGRHSSTDSNKASSGDISPYDNNSPVLSERSLLAMQEDAAPGGSEKLYRVPGQFMLVGHLSSSKSRESSPGPRLGKDLSEEPFDIWGTWHSTLKSGSKDPGMTGSSGDIFESSSLRAGPCSLSQGNLSPNWPRWQGSPAELDSDTQGARRTQAAAPATEGRAHPAVSRACSTPHVQVAGKAERPTARSEQYLTLSGAHDLSESELDVAGLQSRATPQCQRPHGSGRDDKRPPPPYPGPGKPAAAAAWIQGPPEGVETPTDQGGQAAEREQQVTQKKLSSANSLPAGEQDSPRLGDAGWLDWQRERWQIWELLSTDNPDALPETLV

These molecules were tested against T1, M2-flagged human RhoGDI2 (Rho GDP-dissociation inhibitor 2) (human) (assay: affinity purification with mass spectrometry; lysates of 10^7 U-2 OS cells expressing N-terminally or C-terminally flagged RhoGDI2 (control: empty pcDNA4/T0 cells) immunoprecipitated with anti-M2 FLAG antibody; immune complexes analysed by mass spectrometry; n = 2 per condition).

binding, binds:
Centrosomal protein of 192 kDa (from UniProt Q8TEP8 1-2537)
Dedicator of cytokinesis protein 3 (from UniProt Q8IZD9 1-2030)
Dynein heavy chain 9; axonemal (from UniProt Q9NYC9 1-4486)
Dynein heavy chain 11; axonemal (from UniProt Q96DT5 1-4516)
Dynein heavy chain 14; axonemal (from UniProt Q0VDD8 1-3507)
Intersectin-1 (from UniProt Q15811 1-1721)
Myosin-3 (from UniProt P11055 1-1940)
Xin actin-binding repeat-containing protein 2 (from UniProt A4UGR9 1-3374)
B1
B2

No constants are given. Whether binding was seen depends on the method and setting. Binding seen in cells or lysates may run through a third protein. A yes stands for co-enrichment or nearness to the bait. Other partners may have been found. Where a sequence is shown, tags or fusion partners need not be part of it.
